{"source": "patent US20060292634A1", "binders": {"B1": {"name": "iMab122 (designed binder, not shown: small tags and cut ends)", "chain": "NVKLVEKGGNFVENDDDLKLTCRASGRTFSSRTMGWFRQAPNDDSTNVATIRWNGGSTYYTNYGDSVKERFDIRVDQASNTVTLSMDDLQPEDSAEYNCAGTDIGDGWSGRYDYRGQGTDVTVSS"}, "B2": {"name": "iMab1200 (designed binder)", "chain": "HGLPMEKRGNFIVGQNCSLTCPASGYTIGPQCVFNCYFNSALAFSTENMGEWTLDMVFSDAGIYTMCAADSTIYASYYECGHGLSTGGYGYNPVSLGSFVVDSP"}, "B3": {"name": "iMab701 (designed binder)", "chain": "MASTITCEASGYTIGPACVAFDTTLGNNMGTYSAPLTSTTLGVATVTCAADSTIYASYYECGHGLSTGGYGYAAFSVPSVTVNFTA"}}, "note": "Results are given in words; binding and its absence hold for the method and conditions named. Some entries that bind do so weakly or less than the wild type."}
{"biological_target": "chicken lysozyme (chicken) (UniProt P00698)", "assay": "ELISA"}
{"binder": "B1", "binding": "binds"}
{"binder": "B2", "binding": "binds"}
{"binder": "B3", "binding": "binds"}
